Paper PMC10167344
No constants are given. Whether binding was seen depends on the method and setting. Binding seen in cells or lysates may run through a third protein. Some binding calls cover weakened binding; strength is not graded here. Where a sequence is shown, tags or fusion partners need not be part of it. Blank lines part the entries; values can stand above or below the molecule they belong to.

Amino acid sequences for entries named in this document (tags omitted).
UniProt P60953: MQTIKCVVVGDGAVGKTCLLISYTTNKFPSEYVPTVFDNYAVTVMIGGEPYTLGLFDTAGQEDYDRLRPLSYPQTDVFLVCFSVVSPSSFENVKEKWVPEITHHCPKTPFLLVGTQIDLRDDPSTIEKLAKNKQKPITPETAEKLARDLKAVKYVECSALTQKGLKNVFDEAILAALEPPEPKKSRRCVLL
UniProt P46934: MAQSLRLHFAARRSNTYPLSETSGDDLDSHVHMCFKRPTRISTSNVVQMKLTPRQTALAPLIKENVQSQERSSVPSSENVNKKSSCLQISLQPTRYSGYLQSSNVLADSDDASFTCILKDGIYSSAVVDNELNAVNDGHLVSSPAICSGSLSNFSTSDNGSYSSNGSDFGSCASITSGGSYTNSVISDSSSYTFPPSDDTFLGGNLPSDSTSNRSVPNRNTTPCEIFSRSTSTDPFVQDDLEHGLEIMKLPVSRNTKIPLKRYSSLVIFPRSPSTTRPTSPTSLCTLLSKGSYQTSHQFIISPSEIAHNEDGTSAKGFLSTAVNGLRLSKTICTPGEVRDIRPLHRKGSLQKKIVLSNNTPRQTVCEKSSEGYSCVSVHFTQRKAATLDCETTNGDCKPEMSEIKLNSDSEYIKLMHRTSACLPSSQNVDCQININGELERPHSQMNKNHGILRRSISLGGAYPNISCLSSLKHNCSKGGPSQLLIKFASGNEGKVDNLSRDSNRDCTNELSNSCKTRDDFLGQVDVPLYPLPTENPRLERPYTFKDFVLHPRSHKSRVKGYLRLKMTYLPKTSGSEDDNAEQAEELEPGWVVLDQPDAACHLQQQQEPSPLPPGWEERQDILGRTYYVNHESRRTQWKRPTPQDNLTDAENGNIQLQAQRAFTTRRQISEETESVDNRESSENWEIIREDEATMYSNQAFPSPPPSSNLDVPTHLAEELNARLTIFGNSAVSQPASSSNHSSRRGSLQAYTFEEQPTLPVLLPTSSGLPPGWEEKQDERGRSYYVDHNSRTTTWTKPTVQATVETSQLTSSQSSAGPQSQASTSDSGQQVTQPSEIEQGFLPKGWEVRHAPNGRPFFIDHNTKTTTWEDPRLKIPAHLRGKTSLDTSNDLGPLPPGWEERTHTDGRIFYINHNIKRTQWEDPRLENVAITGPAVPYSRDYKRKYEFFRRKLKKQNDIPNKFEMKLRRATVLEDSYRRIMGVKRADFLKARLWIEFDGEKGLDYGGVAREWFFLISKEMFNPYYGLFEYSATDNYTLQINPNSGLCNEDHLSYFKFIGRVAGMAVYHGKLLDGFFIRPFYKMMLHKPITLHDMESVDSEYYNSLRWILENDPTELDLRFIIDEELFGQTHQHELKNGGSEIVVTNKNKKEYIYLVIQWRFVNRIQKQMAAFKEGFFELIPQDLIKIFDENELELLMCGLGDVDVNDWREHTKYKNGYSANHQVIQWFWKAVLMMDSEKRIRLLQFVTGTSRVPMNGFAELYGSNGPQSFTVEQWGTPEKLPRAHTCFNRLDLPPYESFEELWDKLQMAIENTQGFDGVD

What was measured:
[1] = molecular target: T1, Flag-LAPTM5 (lysosomal-associated protein transmembrane 5) (human) (UniProt Q13571); experiment: co-IP; L02 cells cotransfected with the indicated plasmids (Fig. 2d); lysis in 20 mM Tris-HCl pH 7.4, 150 mM NaCl, 1 mM EDTA, 1% NP-40; protein A/G agarose; washes with 300 mM and 150 mM IP lysis buffer
T1 sequence: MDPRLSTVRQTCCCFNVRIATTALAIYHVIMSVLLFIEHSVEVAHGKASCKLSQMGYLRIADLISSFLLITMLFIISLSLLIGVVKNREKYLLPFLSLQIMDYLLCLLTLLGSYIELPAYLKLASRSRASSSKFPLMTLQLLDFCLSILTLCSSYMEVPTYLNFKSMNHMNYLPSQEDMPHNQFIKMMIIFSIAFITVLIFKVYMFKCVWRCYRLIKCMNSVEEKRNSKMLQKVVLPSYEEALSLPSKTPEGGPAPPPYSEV

[2] = molecular target: T1, Flag-LAPTM5 (lysosomal-associated protein transmembrane 5) (human); experiment: co-IP; HEK293T or L02 cells (which is not stated for Fig. 2f, 6g, 6i) cotransfected with the indicated plasmids; lysis in 20 mM Tris-HCl pH 7.4, 150 mM NaCl, 1 mM EDTA, 1% NP-40; for LAPTM5-CDC42 also after PA stimulation (Fig. 6i)
GST-HA-CDC42 (human) = GST-HA-CDC42 (human) (UniProt P60953); experiment: pull-down; GST pull-down (GST precipitation assay); procedure not described in the text shown

binding [1]: binds
Molecule: HA-NEDD4 (from UniProt P46934 1-1319) (enzyme)

binding [2]: binds
Molecule: Myc-CDC42 (Cell Division Cycle 42) (from UniProt P60953 1-191)

binding (GST-HA-CDC42 (human)): binds
B1: Flag-LAPTM5 (lysosomal-associated protein transmembrane 5) (protein, UniProt Q13571 1-262)
chain: MDPRLSTVRQTCCCFNVRIATTALAIYHVIMSVLLFIEHSVEVAHGKASCKLSQMGYLRIADLISSFLLITMLFIISLSLLIGVVKNREKYLLPFLSLQIMDYLLCLLTLLGSYIELPAYLKLASRSRASSSKFPLMTLQLLDFCLSILTLCSSYMEVPTYLNFKSMNHMNYLPSQEDMPHNQFIKMMIIFSIAFITVLIFKVYMFKCVWRCYRLIKCMNSVEEKRNSKMLQKVVLPSYEEALSLPSKTPEGGPAPPPYSEV
